From publication PMC9936545, “Diurnal Fluctuations of Orexin-A and -B in Cynomolgus Monkey Cerebrospinal Fluid Determined by a Novel Analytical Method Using Antiadsorptive Additive Treatment Followed by Nanoflow Liquid Chromatography–High-Resolution Mass Spectrometry” (ACS Chemical Neuroscience, 2023)

Assay: Diurnal fluctuations of OXA and OXB levels in cisternal and lumbar CSF by nanoLC-HRMS
Assay type: in vivo, cynomolgus monkey
[1] = LLOQ 2.5 pg/mL, given a value of 0 pg/mL
[2] = percentage relative to maximum concentration in each animal, mean, N = 5

Orexin-A (QPLPDCCRQKTCSCRLYELLHGAGNHAAGILTL; Orexin-A; UniProt O43612 34-66, looked up) [OXA, 33-amino acid peptide with N-terminal pyroglutamylation, amidation of the C-terminal leucine, and two intramolecular disulfide bridges]
concentration in cisternal CSF, animal-1 at 3:00 [1]: below the LLOQ
concentration in lumbar CSF, animal-1 at 8:00 [1]: below the LLOQ
mean molar ratio of OXA to OXB (cisternal CSF, mean ± SD): 5.3 ± 3.9
concentration in the CSF sample used in PRM analysis (monkey cisternal CSF sample at 17:00, nanoLC-HRMS): 179.5 pg/mL
bottom level at 7:00, % of the maximum, cisternal CSF [2]: 33.5%
bottom level at 7:00, % of the maximum, lumbar CSF [2]: 17.6%
